Values from PubChem BioAssay AID1259425 (University of Nebraska Medical Center, 2018)

Purpose: 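Seek colon cancer weak points whose silencing resembles KSR1 loss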 (primary screen)
System: HCT116 human colon cancer cells
Reagent: siRNA pool against human genes, 50 nM siRNA
Detection: 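mRNA of six signature genes measured together by branched-DNA assay after 50 nM siRNA pool, blank removed, divided by geometric mean of two housekeeping genes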
Reading the numbers: BNIP3L mRNA: higher = more BNIP3L transcript after knockdown; NDRG1 mRNA: higher = more NDRG1 transcript after knockdown; BNIP3 mRNA: higher = more BNIP3 transcript after knockdown
The deposit covers about 14,000 reagents; this is a random part of them. Further read-outs or replicates are left out here. The record does not give: the time to read-out.

gene	BNIP3L mRNA, set 1	NDRG1 mRNA, set 1	BNIP3 mRNA, set 1
CHD7 (chromodomain helicase DNA binding protein 7)	0.0776	0.116	0.281
CFLAR (CASP8 and FADD like apoptosis regulator)	0.171	0.483	0.252
LRRC8D (leucine rich repeat containing 8 VRAC subunit D)	0.155	0.0997	0.235
PITPNA (phosphatidylinositol transfer protein alpha)	0.113	0.183	0.266
NPAP1 (nuclear pore associated protein 1)	0.0992	0.356	0.506
MACO1 (macoilin 1)	0.0915	0.126	0.24
RFC5 (replication factor C subunit 5)	0.214	0.668	0.471
EDC4 (enhancer of mRNA decapping 4)	0.0492	0.164	0.447
STX12 (syntaxin 12)	0.127	0.201	0.5
MUL1 (mitochondrial E3 ubiquitin protein ligase 1)	0.166	0.24	0.355
MSL3 (MSL complex subunit 3)	0.0773	0.487	0.57
KLK3 (kallikrein related peptidase 3)	0.0982	0.414	0.286
YWHAQ	0.073	0.288	0.332
C5orf15 (chromosome 5 open reading frame 15)	0.308	0.554	0.415
DNMBP (dynamin binding protein)	0.0791	0.279	0.259
TMEFF1	0.0655	0.16	0.309
NFIA (nuclear factor I A)	0.109	0.201	0.31
RFC4 (replication factor C subunit 4)	0.139	0.0472	0.17
NAA20 (N-alpha-acetyltransferase 20, NatB catalytic subunit)	0.0611	0.16	0.407
LMO2 (LIM domain only 2)	0.129	0.095	0.395
TNNI1 (troponin I1, slow skeletal type)	0.0979	0.0862	0.12
PRPF38B (pre-mRNA processing factor 38B)	0.0565	0.379	0.287
BMI1 (BMI1 proto-oncogene, polycomb ring finger)	0.0687	0.175	0.211
FH (fumarate hydratase)	0.102	0.107	0.277
GMEB1 (glucocorticoid modulatory element binding protein 1)	0.0745	0.0699	0.385
NFRKB (nuclear factor related to kappaB binding protein)	0.0844	0.0979	0.272
INPP5F (inositol polyphosphate-5-phosphatase F)	0.132	0.089	0.333
SST (somatostatin)	0.366	0.664	0.732
INPP5J (inositol polyphosphate-5-phosphatase J)	0.168	0.176	0.277
UBR4 (ubiquitin protein ligase E3 component n-recognin 4)	0.132	0.13	0.31
EIF1AX (eukaryotic translation initiation factor 1A X-linked)	0.0625	0.429	0.324
IRX1 (iroquois homeobox 1)	0.199	0.198	0.213
FBXL4 (F-box and leucine rich repeat protein 4)	0.114	0.136	0.123
PCDHA2 (protocadherin alpha 2)	0.105	0.22	0.262
NHSL3 (NHS like 3)	0.112	0.36	0.34
SLC9A6	0.14	0.346	0.184
ZNF335 (zinc finger protein 335)	0.142	0.186	0.405
KCNT1 (potassium sodium-activated channel subfamily T member 1)	0.121	0.128	0.325
UROS (uroporphyrinogen III synthase)	0.0548	0.0821	0.182
NR2E3 (nuclear receptor subfamily 2 group E member 3)	0.0734	0.268	0.21
GPS1 (G protein pathway suppressor 1)	0.0626	0.536	0.306
CANX (calnexin)	0.317	0.162	0.274
USP33 (ubiquitin specific peptidase 33)	0.0542	0.129	0.181
DYNLT2 (dynein light chain Tctex-type 2)	0.189	0.972	0.253
GCM1 (GCM transcription factor 1)	0.0829	0.274	0.247
MTF2 (metal response element binding transcription factor 2)	0.136	0.0477	0.367
LRRCC1 (leucine rich repeat and coiled-coil centrosomal protein 1)	0.224	0.6	0.509
TNFAIP3 (TNF alpha induced protein 3)	0.118	0.188	0.31
LINGO1 (leucine rich repeat and Ig domain containing 1)	0.156	0.271	0.186
KLRG1 (killer cell lectin like receptor G1)	0.0672	0.0761	0.292

Entries above whose target name starts with I or i:
gene	BNIP3L mRNA, set 1	NDRG1 mRNA, set 1	BNIP3 mRNA, set 1
INPP5F (inositol polyphosphate-5-phosphatase F)	0.132	0.089	0.333
INPP5J (inositol polyphosphate-5-phosphatase J)	0.168	0.176	0.277
IRX1 (iroquois homeobox 1)	0.199	0.198	0.213
